According to the supplement of paper PMC10849652:
This is one part of the list.

Amino acid sequences for entries named in this document (tags omitted). A change or cut given only in a name is not applied to a line headed by its entry.
UniProt Q66K74: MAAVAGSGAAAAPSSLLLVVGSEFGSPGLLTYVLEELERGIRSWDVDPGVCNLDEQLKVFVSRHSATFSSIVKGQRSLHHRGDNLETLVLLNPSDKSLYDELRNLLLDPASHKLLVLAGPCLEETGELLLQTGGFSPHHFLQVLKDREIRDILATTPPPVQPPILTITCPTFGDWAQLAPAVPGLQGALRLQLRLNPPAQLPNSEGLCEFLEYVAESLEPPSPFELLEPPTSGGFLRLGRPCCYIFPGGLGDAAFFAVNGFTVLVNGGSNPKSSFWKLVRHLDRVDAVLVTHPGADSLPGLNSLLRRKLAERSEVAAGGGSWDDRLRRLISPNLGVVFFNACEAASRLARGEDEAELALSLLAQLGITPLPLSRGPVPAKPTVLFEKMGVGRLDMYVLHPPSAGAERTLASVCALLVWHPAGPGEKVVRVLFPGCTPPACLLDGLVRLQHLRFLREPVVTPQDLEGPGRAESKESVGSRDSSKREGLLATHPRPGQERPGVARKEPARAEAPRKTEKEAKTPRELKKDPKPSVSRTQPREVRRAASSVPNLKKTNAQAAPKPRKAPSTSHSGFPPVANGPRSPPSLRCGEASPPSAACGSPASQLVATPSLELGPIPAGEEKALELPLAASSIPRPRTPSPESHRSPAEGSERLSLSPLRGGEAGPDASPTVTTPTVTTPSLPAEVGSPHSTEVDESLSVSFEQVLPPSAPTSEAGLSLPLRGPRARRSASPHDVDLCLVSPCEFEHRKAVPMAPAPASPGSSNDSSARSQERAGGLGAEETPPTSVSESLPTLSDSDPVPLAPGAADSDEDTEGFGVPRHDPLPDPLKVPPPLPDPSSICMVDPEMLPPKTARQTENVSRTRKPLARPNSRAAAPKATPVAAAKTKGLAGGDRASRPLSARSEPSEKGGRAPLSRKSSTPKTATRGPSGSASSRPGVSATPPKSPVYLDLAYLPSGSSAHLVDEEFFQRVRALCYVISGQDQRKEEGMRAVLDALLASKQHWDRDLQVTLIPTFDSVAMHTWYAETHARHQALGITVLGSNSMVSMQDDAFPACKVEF
UniProt P27448: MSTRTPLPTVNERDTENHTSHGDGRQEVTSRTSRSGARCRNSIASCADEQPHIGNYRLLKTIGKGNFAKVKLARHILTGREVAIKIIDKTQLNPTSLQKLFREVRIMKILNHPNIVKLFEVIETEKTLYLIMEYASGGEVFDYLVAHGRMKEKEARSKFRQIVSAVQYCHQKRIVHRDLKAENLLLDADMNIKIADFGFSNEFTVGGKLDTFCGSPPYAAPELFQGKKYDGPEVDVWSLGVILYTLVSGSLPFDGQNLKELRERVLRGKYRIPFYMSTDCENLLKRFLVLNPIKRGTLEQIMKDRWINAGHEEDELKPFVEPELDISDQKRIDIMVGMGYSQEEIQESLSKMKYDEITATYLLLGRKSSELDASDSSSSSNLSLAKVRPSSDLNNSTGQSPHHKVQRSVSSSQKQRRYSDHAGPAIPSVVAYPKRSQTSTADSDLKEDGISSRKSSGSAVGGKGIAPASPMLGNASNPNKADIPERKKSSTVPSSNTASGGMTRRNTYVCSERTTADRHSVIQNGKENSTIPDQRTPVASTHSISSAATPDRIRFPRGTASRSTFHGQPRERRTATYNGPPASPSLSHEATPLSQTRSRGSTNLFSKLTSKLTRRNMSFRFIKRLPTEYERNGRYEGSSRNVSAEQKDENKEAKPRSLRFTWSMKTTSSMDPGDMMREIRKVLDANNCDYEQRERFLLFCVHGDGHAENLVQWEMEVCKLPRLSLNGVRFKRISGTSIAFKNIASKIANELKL
UniProt P43366: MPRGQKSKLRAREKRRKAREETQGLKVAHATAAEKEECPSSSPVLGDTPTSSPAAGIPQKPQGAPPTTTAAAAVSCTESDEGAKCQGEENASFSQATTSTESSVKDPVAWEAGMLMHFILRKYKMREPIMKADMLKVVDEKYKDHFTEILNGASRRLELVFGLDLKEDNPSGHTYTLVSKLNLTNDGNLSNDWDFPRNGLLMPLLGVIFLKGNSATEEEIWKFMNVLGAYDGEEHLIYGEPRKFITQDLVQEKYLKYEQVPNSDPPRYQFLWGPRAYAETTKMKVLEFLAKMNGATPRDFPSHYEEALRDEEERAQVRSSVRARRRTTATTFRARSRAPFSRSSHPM
UniProt P28482, whole entry, looked up: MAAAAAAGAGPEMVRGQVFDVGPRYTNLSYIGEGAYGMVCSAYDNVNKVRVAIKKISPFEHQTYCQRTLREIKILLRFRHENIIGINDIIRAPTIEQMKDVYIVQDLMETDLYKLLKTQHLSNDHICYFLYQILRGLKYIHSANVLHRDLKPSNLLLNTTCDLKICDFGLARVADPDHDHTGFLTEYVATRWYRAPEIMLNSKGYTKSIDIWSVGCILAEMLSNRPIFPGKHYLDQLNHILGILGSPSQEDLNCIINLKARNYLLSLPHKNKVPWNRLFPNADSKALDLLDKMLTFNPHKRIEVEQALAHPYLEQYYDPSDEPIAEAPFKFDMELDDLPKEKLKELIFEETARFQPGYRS
UniProt Q9H063: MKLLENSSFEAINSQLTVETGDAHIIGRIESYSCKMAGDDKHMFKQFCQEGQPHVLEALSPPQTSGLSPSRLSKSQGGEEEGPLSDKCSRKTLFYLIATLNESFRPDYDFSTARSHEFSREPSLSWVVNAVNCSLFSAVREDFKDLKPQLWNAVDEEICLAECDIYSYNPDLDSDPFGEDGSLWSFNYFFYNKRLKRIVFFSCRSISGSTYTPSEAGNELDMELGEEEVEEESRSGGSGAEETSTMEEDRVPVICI
UniProt Q96GW9: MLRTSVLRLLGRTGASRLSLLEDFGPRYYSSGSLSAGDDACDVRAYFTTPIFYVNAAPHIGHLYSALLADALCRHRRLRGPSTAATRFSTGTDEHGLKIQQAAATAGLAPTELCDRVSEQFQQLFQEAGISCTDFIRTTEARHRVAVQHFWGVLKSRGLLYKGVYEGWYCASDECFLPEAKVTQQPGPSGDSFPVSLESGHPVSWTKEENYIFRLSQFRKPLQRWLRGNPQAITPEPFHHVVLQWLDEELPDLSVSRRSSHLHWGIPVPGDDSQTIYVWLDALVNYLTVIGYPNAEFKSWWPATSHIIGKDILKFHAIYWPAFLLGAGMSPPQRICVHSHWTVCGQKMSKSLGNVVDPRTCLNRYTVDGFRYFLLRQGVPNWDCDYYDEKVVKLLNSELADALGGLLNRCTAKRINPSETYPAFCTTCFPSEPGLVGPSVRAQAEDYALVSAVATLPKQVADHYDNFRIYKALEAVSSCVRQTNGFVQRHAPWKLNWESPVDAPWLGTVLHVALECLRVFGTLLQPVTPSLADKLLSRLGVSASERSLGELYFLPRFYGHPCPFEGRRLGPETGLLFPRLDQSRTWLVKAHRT
UniProt P49006: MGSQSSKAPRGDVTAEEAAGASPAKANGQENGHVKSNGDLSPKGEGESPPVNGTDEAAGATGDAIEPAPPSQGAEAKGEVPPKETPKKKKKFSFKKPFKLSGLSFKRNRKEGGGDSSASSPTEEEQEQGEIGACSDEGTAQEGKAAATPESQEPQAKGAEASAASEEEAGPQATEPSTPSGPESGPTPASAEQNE
UniProt Q96S90: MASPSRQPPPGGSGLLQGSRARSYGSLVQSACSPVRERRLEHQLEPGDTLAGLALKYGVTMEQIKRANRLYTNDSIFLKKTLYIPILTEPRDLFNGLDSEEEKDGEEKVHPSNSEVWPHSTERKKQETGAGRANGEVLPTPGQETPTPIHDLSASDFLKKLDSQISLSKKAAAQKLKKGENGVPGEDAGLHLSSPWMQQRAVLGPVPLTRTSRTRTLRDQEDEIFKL
UniProt Q9Y6D9: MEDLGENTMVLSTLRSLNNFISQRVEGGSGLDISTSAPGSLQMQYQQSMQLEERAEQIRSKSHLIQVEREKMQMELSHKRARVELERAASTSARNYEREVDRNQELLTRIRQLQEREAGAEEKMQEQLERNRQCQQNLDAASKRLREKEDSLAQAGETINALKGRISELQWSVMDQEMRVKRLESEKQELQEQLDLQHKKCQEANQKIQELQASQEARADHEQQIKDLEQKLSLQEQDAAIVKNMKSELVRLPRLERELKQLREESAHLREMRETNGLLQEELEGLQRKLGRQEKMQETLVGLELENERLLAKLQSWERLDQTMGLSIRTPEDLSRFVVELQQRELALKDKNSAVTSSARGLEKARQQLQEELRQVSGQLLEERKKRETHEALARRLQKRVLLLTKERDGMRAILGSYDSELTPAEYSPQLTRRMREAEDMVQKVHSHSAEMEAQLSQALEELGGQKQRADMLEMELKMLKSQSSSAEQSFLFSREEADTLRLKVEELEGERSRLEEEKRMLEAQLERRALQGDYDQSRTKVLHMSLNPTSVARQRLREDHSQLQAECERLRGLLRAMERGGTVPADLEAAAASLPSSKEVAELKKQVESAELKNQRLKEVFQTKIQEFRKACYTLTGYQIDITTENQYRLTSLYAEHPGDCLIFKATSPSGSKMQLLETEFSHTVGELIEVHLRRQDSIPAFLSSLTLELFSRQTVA
UniProt Q15013: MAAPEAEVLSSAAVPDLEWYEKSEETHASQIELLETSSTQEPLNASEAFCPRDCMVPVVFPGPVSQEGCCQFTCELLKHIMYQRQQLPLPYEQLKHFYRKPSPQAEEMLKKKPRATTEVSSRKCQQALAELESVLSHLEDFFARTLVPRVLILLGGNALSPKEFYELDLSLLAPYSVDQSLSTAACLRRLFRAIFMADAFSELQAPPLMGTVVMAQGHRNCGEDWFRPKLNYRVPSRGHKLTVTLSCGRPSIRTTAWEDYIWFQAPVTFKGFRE
UniProt Q8IV50: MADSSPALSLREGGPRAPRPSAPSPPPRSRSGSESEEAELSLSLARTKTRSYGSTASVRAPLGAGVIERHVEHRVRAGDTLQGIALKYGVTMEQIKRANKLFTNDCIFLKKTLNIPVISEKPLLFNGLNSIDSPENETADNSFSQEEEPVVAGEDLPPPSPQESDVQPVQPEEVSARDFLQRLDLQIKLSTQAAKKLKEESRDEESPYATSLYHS

Key:
Experiment in all cases: log2 fold change, soluble protein after heating vs DMSO (PISA); higher = thermal stabilisation; K562 lysate, 10 uM; active = over 0.2 and 3.5 SD of the protein, either way, in both replicates (recomputed)
lapatinib = compound: CS(=O)(=O)CCNCc1ccc(-c2ccc3ncnc(Nc4ccc(OCc5cccc(F)c5)c(Cl)c4)c3c2)o1 [lapatinib]
Outline: (§1)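 Values give the log-two fold change in thermal stability against solvent controls, from duplicates. Crude K562 extract at 1 mg/mL protein, made by dounce homogenisation in PBS pH 7.4 with 1 mM MgCl2, was treated with 10 μM compound for 30 min. After 3 min heating across 48°C-58°C, aliquots were pooled, adjusted to 0.5% NP-40 at 4°C and centrifuged at 21,000xg for 90 min. The supernatant was measured by TMTpro 16plex LC-MS/MS with channel sums equalised.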

pictilisib = compound: CS(=O)(=O)N1CCN(Cc2cc3nc(-c4cccc5[nH]ncc45)nc(N4CCOCC4)c3s2)CC1 [pictilisib]
Outline: as §1

crizotinib = compound: C[C@@H](Oc1cc(-c2cnn(C3CCNCC3)c2)cnc1N)c1c(Cl)ccc(F)c1Cl [crizotinib]
Outline: as §1

[1] = compound: C[C@H](C1=CC=C(C=C1)C(=O)NC2=C3C=CNC3=NC=C2)N
Outline: as §1

duvelisib = compound: C[C@H](Nc1ncnc2nc[nH]c12)c1cc2cccc(Cl)c2c(=O)n1-c1ccccc1 [duvelisib]
Outline: as §1

gandotinib = compound: Cc1cc(Nc2cc(CN3CCOCC3)c3nc(C)c(Cc4ccc(Cl)cc4F)n3n2)n[nH]1 [gandotinib]
Outline: as §1

tozasertib = compound: Cc1cc(Nc2cc(N3CCN(C)CC3)nc(Sc3ccc(NC(=O)C4CC4)cc3)n2)n[nH]1 [tozasertib]
Outline: as §1

doramapimod = compound: Cc1ccc(-n2nc(C(C)(C)C)cc2NC(=O)Nc2ccc(OCCN3CCOCC3)c3ccccc23)cc1 [doramapimod]
Outline: as §1

bafetinib = compound: Cc1ccc(NC(=O)c2ccc(CN3CC[C@H](N(C)C)C3)c(C(F)(F)F)c2)cc1Nc1nccc(-c2cncnc2)n1 [bafetinib]
Outline: as §1

[2] = compound: Cc1cccc(CC(=O)N2CCc3c2ccc(-c2cn(C)c4ncnc(N)c24)c3F)n1
Outline: as §1

nilotinib = compound: Cc1cn(-c2cc(NC(=O)c3ccc(C)c(Nc4nccc(-c5cccnc5)n4)c3)cc(C(F)(F)F)c2)cn1 [nilotinib]
Outline: as §1

[3] = compound: Cc1nc(Nc2n[nH]c3c2CN(C(=O)N[C@H](CN(C)C)c2ccccc2)C3(C)C)c2sccc2n1
Outline: as §1

dasatinib = compound: Cc1nc(Nc2ncc(C(=O)Nc3c(C)cccc3Cl)s2)cc(N2CCN(CCO)CC2)n1 [dasatinib]
Outline: as §1

[4] = compound: Cc1ncc(-c2ccnc(Nc3ccc(S(C)(=O)=O)cc3)n2)n1C(C)C
Outline: as §1

[5] = compound: Cn1cc(-c2ccc3c(c2)CCN3C(=O)Cc2cccc(C(F)(F)F)c2)c2c(N)ncnc21
Outline: as §1

quisinostat = compound: Cn1cc(CNCC2CCN(c3ncc(C(=O)NO)cn3)CC2)c2ccccc21 [quisinostat]
Outline: as §1

tipifarnib = compound: Cn1cncc1[C@@](N)(c1ccc(Cl)cc1)c1ccc2c(c1)c(-c1cccc(Cl)c1)cc(=O)n2C [tipifarnib]
Outline: as §1

[6] = compound: NC(=O)Nc1cc(-c2cccc(F)c2)sc1C(=O)N[C@H]1CCCNC1
Outline: as §1

[7] = compound: NC(=O)c1cnc(N[C@@H]2CCCC[C@@H]2N)nc1Nc1cccc(-n2nccn2)c1
Outline: as §1

[8] = compound: NC1(c2ccc(-c3nc4ccn5c(=O)[nH]nc5c4cc3-c3ccccc3)cc2)CCC1
Outline: as §1

Measured: log2 fold change

MARK2 (UniProt E9PC69)
inactive: lapatinib 0.003 | pictilisib 0.052 | crizotinib -0.14 | [1] 0.131 | duvelisib -0.068 | gandotinib -0.166 | tozasertib -0.233 | doramapimod 0.075 | bafetinib -0.071 | [2] 0.025 | nilotinib 0.019 | [3] 0.034 | dasatinib -0.03 | [4] 0.012 | [5] -0.047 | quisinostat 0.031 | tipifarnib -0.019 | [6] -0.065 | [7] 0.002 | [8] -0.183

LYZ (UniProt P61626)
inactive: lapatinib -0.195 | pictilisib 0.061 | crizotinib 0.98 | [1] 0.37 | duvelisib 0.017 | gandotinib -0.249 | tozasertib -0.01 | doramapimod -0.097 | bafetinib 0.686 | [2] 0.258 | nilotinib -0.007 | [3] -0.211 | dasatinib -0.078 | [4] 0.001 | [5] 1.25 | quisinostat -0.035 | tipifarnib -0.207 | [6] 0.305 | [7] -0.05 | [8] 0.422

MAK16 (UniProt Q9BXY0)
inactive: lapatinib -0.05 | pictilisib -0.072 | crizotinib -0.026 | [1] 0.021 | duvelisib 0.028 | gandotinib 0.02 | tozasertib 0.019 | doramapimod -0.003 | bafetinib -0.015 | [2] -0.001 | nilotinib -0.01 | [3] -0.019 | dasatinib 0.002 | [4] 0.047 | [5] 0.034 | quisinostat 0.06 | tipifarnib 0.021 | [6] 0.011 | [7] -0.044 | [8] 0.016

MAP1S (UniProt Q66K74)
inactive: lapatinib 0.009 | pictilisib -0.06 | crizotinib -0.016 | [1] -0.021 | duvelisib 0.004 | gandotinib -0.065 | tozasertib 0.035 | doramapimod 0.003 | bafetinib -0.03 | [2] 0.049 | nilotinib 0.007 | [3] -0.022 | dasatinib -0.007 | [4] -0.009 | [5] 0.009 | quisinostat -0.006 | tipifarnib 0.02 | [6] 0.026 | [7] 0 | [8] 0

MARK3 (UniProt P27448)
inactive: lapatinib 0.007 | pictilisib -0.061 | crizotinib -0.206 | [1] 0.043 | duvelisib 0.011 | gandotinib -0.089 | tozasertib -0.143 | doramapimod -0.081 | bafetinib -0.088 | [2] 0.049 | nilotinib 0.013 | [3] -0.004 | dasatinib -0.186 | [4] -0.05 | [5] 0.014 | quisinostat 0.172 | tipifarnib -0.072 | [6] -0.08 | [7] -0.029 | [8] -0.06

MAGEB1 (UniProt P43366)
inactive: lapatinib -0.008 | pictilisib -0.03 | crizotinib -0.036 | [1] -0.003 | duvelisib 0.012 | gandotinib -0.069 | tozasertib -0.009 | doramapimod -0.002 | bafetinib -0.034 | [2] 0.01 | nilotinib -0.022 | [3] 0.026 | dasatinib -0.027 | [4] 0.022 | [5] 0.02 | quisinostat -0.098 | tipifarnib 0.01 | [6] 0.035 | [7] -0.001 | [8] -0.008

MAP1LC3B2 (UniProt A6NCE7)
inactive: lapatinib -0.029 | pictilisib -0.044 | crizotinib 0.06 | [1] -0.03 | duvelisib 0.032 | gandotinib 0.035 | tozasertib 0.014 | doramapimod -0.056 | bafetinib -0.005 | [2] 0.022 | nilotinib 0.01 | [3] -0.047 | dasatinib 0.009 | [4] 0.022 | [5] 0.043 | quisinostat 0.001 | tipifarnib 0.046 | [6] 0.012 | [7] -0.009 | [8] 0.049

MAPK1 (UniProt P28482)
inactive: lapatinib -0.018 | pictilisib 0.005 | crizotinib 0.065 | [1] -0.004 | duvelisib 0.004 | gandotinib 0.036 | tozasertib -0.01 | doramapimod -0.013 | bafetinib 0.004 | [2] -0.061 | nilotinib -0.042 | [3] 0.205 | dasatinib -0.014 | [4] 0.091 | [5] -0.01 | quisinostat 0.07 | tipifarnib 0.011 | [6] 0.01 | [7] 0.088 | [8] 0.003

MAF1 (UniProt Q9H063)
inactive: lapatinib 0.022 | pictilisib -0.014 | crizotinib -0.051 | [1] 0.149 | duvelisib -0.046 | gandotinib 0.106 | tozasertib 0.029 | doramapimod 0.014 | bafetinib 0.005 | [2] -0.153 | nilotinib 0.008 | [3] 0.019 | dasatinib -0.085 | [4] -0.016 | [5] 0.044 | quisinostat -0.027 | tipifarnib 0.002 | [6] 0.125 | [7] 0.016 | [8] 0.043

MARS2 (UniProt Q96GW9)
inactive: lapatinib -0.043 | pictilisib -0.028 | crizotinib 0.035 | [1] 0.027 | duvelisib 0.004 | gandotinib 0.027 | tozasertib 0.018 | doramapimod -0.008 | bafetinib -0.043 | [2] -0.04 | nilotinib 0.019 | [3] -0.018 | dasatinib -0.005 | [4] -0.017 | [5] 0.019 | quisinostat 0 | tipifarnib 0.032 | [6] -0.002 | [7] -0.012 | [8] -0.05

MAPK9 (UniProt P45984)
inactive: lapatinib 0.001 | pictilisib 0.088 | crizotinib -0.021 | [1] 0.026 | duvelisib 0.006 | gandotinib 0.035 | tozasertib 0.033 | doramapimod 0.192 | bafetinib -0.011 | [2] -0.15 | nilotinib -0.015 | [3] 0.025 | dasatinib -0.005 | [4] 0.174 | [5] 0.118 | quisinostat 0.004 | tipifarnib -0.028 | [6] -0.005 | [7] 0.009 | [8] 0.012

MARCKSL1 (UniProt P49006)
inactive: lapatinib 0.039 | pictilisib -0.021 | crizotinib 0.118 | [1] 0.173 | duvelisib -0.004 | gandotinib -0.144 | tozasertib 0.011 | doramapimod -0.038 | bafetinib 0.092 | [2] -0.257 | nilotinib 0.015 | [3] 0.003 | dasatinib 0.061 | [4] 0.001 | [5] 0.026 | quisinostat 0.079 | tipifarnib 0.041 | [6] 0.004 | [7] -0.054 | [8] 0.056

LYSMD1 (UniProt Q96S90)
inactive: lapatinib 0.009 | pictilisib 0.011 | crizotinib 0.016 | [1] -0.031 | duvelisib 0.012 | gandotinib 0.081 | tozasertib 0.011 | doramapimod 0.075 | bafetinib -0.016 | [2] -0.017 | nilotinib -0.002 | [3] -0.022 | dasatinib -0.035 | [4] 0.006 | [5] 0.021 | quisinostat -0.07 | tipifarnib 0.019 | [6] 0.019 | [7] 0.018 | [8] -0.014

MAD1L1 (UniProt Q9Y6D9)
inactive: lapatinib 0.027 | pictilisib 0.021 | crizotinib 0.006 | [1] -0.02 | duvelisib -0.015 | gandotinib 0.152 | tozasertib -0.003 | doramapimod 0.086 | bafetinib -0.066 | [2] 0.074 | nilotinib -0.001 | [3] 0.025 | dasatinib 0.021 | [4] -0.001 | [5] -0.001 | quisinostat -0.009 | tipifarnib -0.021 | [6] -0.019 | [7] 0.007 | [8] 0.026

MAD2L1BP isoform 3 (UniProt Q15013)
inactive: lapatinib 0.017 | pictilisib -0.155 | crizotinib -0.094 | [1] 0.022 | duvelisib 0.048 | gandotinib -0.009 | tozasertib -0.071 | doramapimod 0.12 | bafetinib -0.041 | [2] 0.008 | nilotinib -0.028 | [3] 0.108 | dasatinib 0.016 | [4] -0.007 | [5] -0.026 | quisinostat -0.066 | tipifarnib 0.018 | [6] -0.019 | [7] 0.048 | [8] -0.056

Taken from above (3 entries):
MARS2 (UniProt Q96GW9)
inactive: lapatinib -0.043 | pictilisib -0.028 | crizotinib 0.035 | [1] 0.027 | duvelisib 0.004 | gandotinib 0.027 | tozasertib 0.018 | doramapimod -0.008 | bafetinib -0.043 | [2] -0.04 | nilotinib 0.019 | [3] -0.018 | dasatinib -0.005 | [4] -0.017 | [5] 0.019 | quisinostat 0 | tipifarnib 0.032 | [6] -0.002 | [7] -0.012 | [8] -0.05

MAPK9 (UniProt P45984)
inactive: lapatinib 0.001 | pictilisib 0.088 | crizotinib -0.021 | [1] 0.026 | duvelisib 0.006 | gandotinib 0.035 | tozasertib 0.033 | doramapimod 0.192 | bafetinib -0.011 | [2] -0.15 | nilotinib -0.015 | [3] 0.025 | dasatinib -0.005 | [4] 0.174 | [5] 0.118 | quisinostat 0.004 | tipifarnib -0.028 | [6] -0.005 | [7] 0.009 | [8] 0.012

MARCKSL1 (UniProt P49006)
inactive: lapatinib 0.039 | pictilisib -0.021 | crizotinib 0.118 | [1] 0.173 | duvelisib -0.004 | gandotinib -0.144 | tozasertib 0.011 | doramapimod -0.038 | bafetinib 0.092 | [2] -0.257 | nilotinib 0.015 | [3] 0.003 | dasatinib 0.061 | [4] 0.001 | [5] 0.026 | quisinostat 0.079 | tipifarnib 0.041 | [6] 0.004 | [7] -0.054 | [8] 0.056

The listing continues:

LYSMD2 (UniProt Q8IV50)
inactive: lapatinib -0.038 | pictilisib -0.039 | crizotinib 0.055 | [1] 0 | duvelisib -0.009 | gandotinib 0.002 | tozasertib -0.027 | doramapimod 0.017 | bafetinib 0.051 | [2] -0.062 | nilotinib -0.035 | [3] 0.021 | dasatinib 0.025 | [4] 0 | [5] 0.033 | quisinostat 0.012 | tipifarnib -0.064 | [6] 0.003 | [7] -0.021 | [8] 0.05
